We go through two molecules from publication PMC8302635.

Holding throughout (test): co-purification; SEPT2, msGFP-SEPT6 (WT or ΔAH) and SEPT7 produced in E. coli BL21-DE3, complex purified as in ref. 51, Coomassie-stained gel; the bait is not stated
In experiment [1] the target is T1, SEPT2 (human), Q15019.
T1 chain: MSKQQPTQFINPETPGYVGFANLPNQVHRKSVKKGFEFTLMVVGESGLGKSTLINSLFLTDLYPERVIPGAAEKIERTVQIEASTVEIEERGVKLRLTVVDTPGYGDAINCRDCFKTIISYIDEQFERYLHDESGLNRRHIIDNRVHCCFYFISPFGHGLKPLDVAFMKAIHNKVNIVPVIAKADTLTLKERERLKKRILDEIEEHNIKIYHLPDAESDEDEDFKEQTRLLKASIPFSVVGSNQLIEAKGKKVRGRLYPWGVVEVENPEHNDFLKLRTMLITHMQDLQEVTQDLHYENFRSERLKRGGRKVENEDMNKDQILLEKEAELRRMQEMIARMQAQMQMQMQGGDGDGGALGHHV
Particulars: remark: other sources report otherwise.

For experiment [2], the target named is T2, SEPT7 (human) (UniProt Q16181).
T2 sequence: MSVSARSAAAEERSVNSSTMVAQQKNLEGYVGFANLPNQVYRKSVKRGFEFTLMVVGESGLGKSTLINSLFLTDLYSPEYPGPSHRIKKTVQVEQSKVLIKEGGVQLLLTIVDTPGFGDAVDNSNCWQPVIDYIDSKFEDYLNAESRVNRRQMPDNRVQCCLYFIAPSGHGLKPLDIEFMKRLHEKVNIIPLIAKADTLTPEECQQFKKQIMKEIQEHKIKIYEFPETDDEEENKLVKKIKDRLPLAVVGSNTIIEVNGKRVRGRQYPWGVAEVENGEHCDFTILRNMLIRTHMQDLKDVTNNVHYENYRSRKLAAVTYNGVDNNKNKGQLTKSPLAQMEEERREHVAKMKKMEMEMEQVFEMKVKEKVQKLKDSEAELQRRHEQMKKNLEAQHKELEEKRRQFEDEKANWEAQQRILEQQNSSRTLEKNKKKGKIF

The target in experiment [3] is T3, SEPT2 (human) (UniProt Q15019).
T3 sequence: T1 chain

These are yes or no findings as the source states them, for the method shown. Some results given as binding are weak or reduced against the parent protein; the word gives no strength. For part of these data: Where a sequence is shown, tags or fusion partners need not be part of it.

B1: SEPT7, Q16181 1-437 (protein)
chain: T2 sequence
As to B1, the binding result in experiment [1] was “binds”.

B2: msGFP-SEPT6 (protein, UniProt Q14141 1-434)
chain: MAATDIARQVGEGCRTVPLAGHVGFDSLPDQLVNKSVSQGFCFNILCVGETGLGKSTLMDTLFNTKFEGEPATHTQPGVQLQSNTYDLQESNVRLKLTIVSTVGFGDQINKEDSYKPIVEFIDAQFEAYLQEELKIRRVLHTYHDSRIHVCLYFIAPTGHSLKSLDLVTMKKLDSKVNIIPIIAKADAISKSELTKFKIKITSELVSNGVQIYQFPTDDESVAEINGTMNAHLPFAVIGSTEELKIGNKMMRARQYPWGTVQVENEAHCDFVKLREMLIRVNMEDLREQTHTRHYELYRRCKLEEMGFKDTDPDSKPFSLQETYEAKRNEFLGELQKKEEEMRQMFVQRVKEKEAELKEAEKELHEKFDRLKKLHQDEKKKLEDKKKSLDDEVNAFKQRKTAAELLQSQGSQAGGSQTLKRDKEKKNNPWLCTE
B2: the binding result in experiment [2] and in experiment [3] was “binds” throughout.
